The supplement of paper PMC8728848
The list shows a part of the results.

Experiments:
Assay in all cases: glycan array binding signal (z-score within array); higher = stronger binding
Settings in all cases: glycan notation: IUPAC condensed, linker removed
[1] = target: Gal(b1-3)GalNAc(b1-3)Gal(a1-4)Gal(b1-4)Glc
Method in brief: (§1)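 Glycan array data came from 3228 arrays in the Consortium for Functional Glycomics database, and only arrays with an available protein sequence were kept. Glycan names were put into IUPAC-condensed notation, and columns mapping to the same glycan were averaged. The binding signal is a within-array Z-score, averaged across arrays of one protein sequence run at different concentrations or buffers and across linkers. A negative Z-score can be read as non-binding.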

[2] = target: Gal(b1-3)GalNAc(b1-4)Gal(b1-4)Glc
Method in brief: as §1

[3] = target: Gal(b1-3)GalNAc(b1-4)[Neu5Ac(a2-3)]Gal(b1-4)Glc
Method in brief: as §1

Gal(b1-3)GlcNAc = target: Gal(b1-3)GlcNAc
Method in brief: as §1

[4] = target: Gal(b1-3)GlcNAc(a1-3)Gal(b1-4)GlcNAc
Method in brief: as §1

[5] = target: Gal(b1-3)GlcNAc(a1-6)Gal(b1-4)GlcNAc
Method in brief: as §1

Gal(b1-3)GlcNAc(b1-2)Man = target: Gal(b1-3)GlcNAc(b1-2)Man
Method in brief: as §1

[6] = target: Gal(b1-3)GlcNAc(b1-2)Man(a1-3)[Gal(b1-3)GlcNAc(b1-2)Man(a1-6)]Man(b1-4)GlcNAc(b1-4)GlcNAc
Method in brief: as §1

[7] = target: Gal(b1-3)GlcNAc(b1-2)Man(a1-3)[Gal(b1-3)GlcNAc(b1-2)Man(a1-6)]Man(b1-4)GlcNAc(b1-4)[Fuc(a1-6)]GlcNAc
Method in brief: as §1

[8] = target: Gal(b1-3)GlcNAc(b1-2)Man(a1-3)[GlcNAc(b1-4)][Gal(b1-3)GlcNAc(b1-2)Man(a1-6)]Man(b1-4)GlcNAc(b1-4)GlcNAc
Method in brief: as §1

[9] = target: Gal(b1-3)GlcNAc(b1-2)[Gal(b1-3)GlcNAc(b1-6)]Man(a1-6)[Gal(b1-3)GlcNAc(b1-2)Man(a1-3)]Man(b1-4)GlcNAc(b1-4)GlcNAc
Method in brief: as §1

[10] = target: Gal(b1-3)GlcNAc(b1-3)Gal(b1-3)GlcNAc
Method in brief: as §1

[11] = target: Gal(b1-3)GlcNAc(b1-3)Gal(b1-4)Glc
Method in brief: as §1

[12] = target: Gal(b1-3)GlcNAc(b1-3)Gal(b1-4)GlcNAc
Method in brief: as §1

[13] = target: Gal(b1-3)GlcNAc(b1-3)Gal(b1-4)GlcNAc(b1-2)Man(a1-3)[Gal(b1-3)GlcNAc(b1-3)Gal(b1-4)GlcNAc(b1-2)Man(a1-6)]Man(b1-4)GlcNAc(b1-4)GlcNAc
Method in brief: as §1

[14] = target: Gal(b1-3)GlcNAc(b1-3)Gal(b1-4)GlcNAc(b1-2)[Gal(b1-3)GlcNAc(b1-3)Gal(b1-4)GlcNAc(b1-6)]Man(a1-6)[Gal(b1-3)GlcNAc(b1-3)Gal(b1-4)GlcNAc(b1-2)Man(a1-3)]Man(b1-4)GlcNAc(b1-4)[Fuc(a1-6)]GlcNAc
Method in brief: as §1

[15] = target: Gal(b1-3)GlcNAc(b1-3)Gal(b1-4)GlcNAc(b1-3)Gal(b1-4)GlcNAc(b1-2)[Gal(b1-3)GlcNAc(b1-3)Gal(b1-4)GlcNAc(b1-3)Gal(b1-4)GlcNAc(b1-6)]Man(a1-6)[Gal(b1-3)GlcNAc(b1-3)Gal(b1-4)GlcNAc(b1-3)Gal(b1-4)GlcNAc(b1-2)Man(a1-3)]Man(b1-4)GlcNAc(b1-4)[Fuc(a1-6)]GlcNAc
Method in brief: as §1

[16] = target: Gal(b1-3)GlcNAc(b1-3)Gal(b1-4)GlcNAc(b1-6)[Gal(b1-3)GlcNAc(b1-3)]Gal(b1-4)Glc
Method in brief: as §1

[17] = target: Gal(b1-3)GlcNAc(b1-3)Gal(b1-4)[Fuc(a1-3)]GlcNAc
Method in brief: as §1

[18] = target: Gal(b1-3)GlcNAc(b1-3)Gal(b1-4)[Fuc(a1-3)]GlcNAc(b1-6)[Gal(b1-3)GlcNAc(b1-3)]Gal(b1-4)Glc
Method in brief: as §1

[19] = target: Gal(b1-3)GlcNAc(b1-3)GalNAc
Method in brief: as §1

[20] = target: Gal(b1-3)GlcNAc(b1-6)Gal(b1-4)GlcNAc
Method in brief: as §1

[21] = target: Gal(b1-3)GlcNAc(b1-6)GalNAc
Method in brief: as §1

B1: Clec18A (Homo sapiens) (protein)
chain: PFHTCDLRIDGDCFMVSSEADTYYRARMKCQRKGGVLAQIKRQKVQDILAFYLGRLETTNEVIDSDFETRNFWIGLTYKTAKDSFRWATGEHQAFTSFAFGQPDNHGFGNCVELQASAAFNWNDQRCKTRNRYICQ
glycan array binding signal (z-score) [1]: -0.059
glycan array binding signal (z-score) [2]: 1.14
glycan array binding signal (z-score) [3]: 0.583
glycan array binding signal (z-score) (Gal(b1-3)GlcNAc): -0.262
glycan array binding signal (z-score) [4]: 1.46
glycan array binding signal (z-score) [5]: 1.4
glycan array binding signal (z-score) (Gal(b1-3)GlcNAc(b1-2)Man): -0.886
glycan array binding signal (z-score) [6]: 0.56
glycan array binding signal (z-score) [7]: -0.113
glycan array binding signal (z-score) [8]: -0.228
glycan array binding signal (z-score) [9]: -0.746
glycan array binding signal (z-score) [10]: 4.51
glycan array binding signal (z-score) [11]: -0.534
glycan array binding signal (z-score) [12]: 1.26
glycan array binding signal (z-score) [13]: 0.452
glycan array binding signal (z-score) [14]: 0.598
glycan array binding signal (z-score) [15]: -0.173
glycan array binding signal (z-score) [16]: -0.381
glycan array binding signal (z-score) [17]: -0.677
glycan array binding signal (z-score) [18]: -0.023
glycan array binding signal (z-score) [19]: -0.214
glycan array binding signal (z-score) [20]: -0.879
glycan array binding signal (z-score) [21]: -0.784
